Reference: US7820698B2, “Phosphodiesterase-4 inhibitors belonging to the tertiary amine class” (Chiesi Farmaceutici S.p.A., priority 2008, dated 2010)
For at least one compound, name, drawing or mass did not settle the structure.

Tested on: PDE4 enzyme
Assay: In vitro determination of PDE4 inhibitory activity in the cell free assay
Assay type: biochemical, human
Settings: U937 cell supernatant, 1.6 μM cAMP, 30° C. for 30 minutes, cAMP disappearance
Experimental: The U937 human monocytic cell line was used as source of PDE4 enzyme. Cells were cultured, harvested and supernatant fraction prepared essentially as described in T. J. Torphy, et al., J. Pharmacol. Exp. Ther., 1992; 263:1195-1205.
PDE4 activity was determined in cells supernatants by assaying cAMP disappearance from the incubation mixtures. 50 μl of cell supernatant were incubated at 30° C. for 30 minutes in a final volume of 200 μl in the presence of 1.6 μM cAMP with or without the test compound (50 μl).
The concentration of the test compounds ranged between 10^−12 M and 10^−6 M.
Reactions were stopped by heat inactivation (2.5 minutes at 100° C.), and residual cAMP was measured using an electrochemiluminescence (ECL)-based immunoassay.
The results are expressed as mean±95% confidence limits of the molar concentration of the test compound producing 50% inhibition of cAMP disappearance (IC50).
Percentage of inhibition of PDE4 activity was calculated, assuming cAMP disappearance in the absence of inhibitors as 100% and cAMP disappearance in heat inactivated samples as 0%.

Compound | IC50 [nM]
COc1ccc(N(Cc2ccco2)Cc2c(Cl)cncc2Cl)cc1OC [Compound C9, (3,5-Dichloro-pyridin-4-ylmethyl)-(3,4-dimethoxy-phenyl)-furan-2-ylmethyl-amine] | 66
COc1ccc(N(Cc2cccc(NS(C)(=O)=O)c2)Cc2c(Cl)cncc2Cl)cc1OC [Compound C12] | 54
